Results as given in US20190046655A1 (ARBELE, published 2019).
These are yes or no findings as the source states them, for the method shown. Some binding calls cover weakened binding; strength is not graded here.

The chains behind the UniProt entries cited, without tags or fusion partners. Residues count along the entry.
UniProt Q12864, residues 23-787: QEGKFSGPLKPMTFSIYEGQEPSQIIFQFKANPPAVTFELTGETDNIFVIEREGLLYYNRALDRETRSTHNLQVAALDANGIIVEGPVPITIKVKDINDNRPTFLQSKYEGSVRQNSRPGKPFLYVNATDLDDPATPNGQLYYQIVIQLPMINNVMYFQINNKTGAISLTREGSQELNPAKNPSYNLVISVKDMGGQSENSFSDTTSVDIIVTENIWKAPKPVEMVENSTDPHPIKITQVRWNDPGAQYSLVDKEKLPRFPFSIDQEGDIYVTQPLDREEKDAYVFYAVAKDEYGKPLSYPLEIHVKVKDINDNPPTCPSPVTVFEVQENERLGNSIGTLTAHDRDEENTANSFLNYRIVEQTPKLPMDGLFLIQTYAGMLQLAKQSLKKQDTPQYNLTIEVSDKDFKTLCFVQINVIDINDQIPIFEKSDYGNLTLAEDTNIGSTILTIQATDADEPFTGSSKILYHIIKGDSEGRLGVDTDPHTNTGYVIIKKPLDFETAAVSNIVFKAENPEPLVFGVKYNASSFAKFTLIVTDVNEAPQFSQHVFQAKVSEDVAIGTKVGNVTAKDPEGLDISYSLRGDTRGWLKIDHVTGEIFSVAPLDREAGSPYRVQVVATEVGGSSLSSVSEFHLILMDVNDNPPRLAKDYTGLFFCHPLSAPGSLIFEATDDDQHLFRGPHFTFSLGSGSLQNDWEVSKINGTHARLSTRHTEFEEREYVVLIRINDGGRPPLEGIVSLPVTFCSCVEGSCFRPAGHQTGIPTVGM

Tests used:
[1] = target: T1, cadherin-17 (CDH17), ELISA antigen (UniProt Q12864 23-787, limits assumed); test: ELISA
T1 construct: also called liver-intestine cadherin

[2] = target: cadherin-17 (CDH17), ELISA antigen (UniProt Q12864); test: ELISA

Binder | binding [1] | binding [2]
Lic5 scFv (scFv, V domains shown, Tested as a single-chain Fv; also called scFv lic5; mouse CDH17 antibody Lic5 scFv) VH: EVQLEESGGGLVKPGGSLKLPCAASGSSFSDFYMYWVRQTPEKRLEWVASISFDGTYTYYTDRVKGRFTISRDNAKNNLYLQMSSLKSEDTAMYYCARDRPAWFPYWGQGTLVTVSA VL: DIVLTQTTLSLNVSLGDQASISCRSSQSIVHSNGNTYLEWYLQRPGQSPKLLIYKVSNRFSGVPDRFSGSGSGTDFTLKISRVEAEDLGVYYCFQGSHVPLTFGAGTKLELKR | binds | 
Lic3 scFv (scFv, V domains shown, Tested as a single-chain Fv; also called scFv lic 3; mouse CDH17 antibody Lic3 scFv) VH: EVQLVESGGGLVKPGGSLKLSCAASGFSFSDYYMYWVRQAPEKRLEWVASISFDGTYTYYTDRVKGRFTISRDNAKNNLYLQMSSLKSEDTAMYYCARDRPAWFPYWGQGTLVTVSA VL: DVLMTQIPLSLTVSLGDQASISCRSSQSIVHSNGNTYLEWYLQRPGQSPKLLIYKVSNRFSGVPDRFSGSGSGTDFTLKISRVEAEDLGVYYCFQGSHVPLTFGAGTKLELK |  | binds
